These are yes or no findings as the source states them, for the method shown. In cells and extracts the contact can be indirect. Here binding means that the protein was enriched with, or labelled near, the bait; the list need not be complete. Where a sequence is shown, tags or fusion partners need not be part of it.
B1: Fin1 (protein, UniProt Q03898 1-291)
chain: MSNKSNRRSLRDIGNTIGRNNIPSDKDNVFVRLSMSPLRTTSQKEFLKPPMRISPNKTDGMKHSIQVTPRRIMSPECLKGYVSKETQSLDRPQFKNSNKNVKIQNSDHITNIIFPTSPTKLTFSNENKIGGDGSLTRIRARFKNGLMSPERIQQQQQQHILPSDAKSNTDLCSNTELKDAPFENDLPRAKLKGKNLLVELKKEEEDVGNGIESLTKSNTKLNSMLANEGKIHKASFQKSVKFKLPDNIVTEETVELKEIKDLLLQMLRRQREIESRLSNIELQLTEIPKHK
B2: Mam1 (protein, UniProt P40065 1-302)
chain: MREKRTISNKDTNYLKFPNKLQRYSRFLSRKISNTSPEKQPKKNIKEHCLSSYHKEHSVKPKQNSGNVAAKEDKDTQHLQNNVANEEATECLTRSNLKKLQEKIFDRELNDIACDHCLCSTENRRDIKYSRLWFLFELEMSENWNENLRLSCYNKYVYSAIDESWKMENILLKEQEKHYEYFPIGQLLIPNNIDYTNKQKRKENIEDLTIEIDSIIETNHQKKRFLPQSVLIKREDEIAFDDFHLDARKVLNDLSATSENPFSSSPNTKKIKSKGKTLEVVPKKKNKKIIGALERKLHIDEN
B3: Zip1 (protein, UniProt P31111 1-875)
chain: MSNFFRDSSMGFKPRPNIFAKLRVRDVDSDSSANTVVENSSNCLDVGSSIEGDDTFKKPHKTSTEQELITSMSLSQRNHGYSDDMEIGSPKKTTSTDQYNRILKNDVAAIENDTDEDFEITEVREVSEGVAKETKESHGDPNDSETTLKDSKMHEYTMTNGKAPLHTSINNSSTSSNDVLLEAFTNTQRICSNLKQELQKQQQDNAKLKVRLQSYASNSDKINEKVGKYKSCLETLQERIATLTSHKNNQETKLKDLRQNHQLYQRRISGFKTSIENLNKTINDLGKNKKEADAELMKKGKEIEYLKRELDDCSGQLSEEKIKNSSLIQEMGKNREEMIKSIENFFSEDKAHHLLQFNKFEERVHDLFEKKLQKHFDVAKDTLNVGLRNTTVELSSNTETMLKQQYEDIKENLEQKMSSSKDEMAKTINELSVTQKGLIMGVQEELLTSSGNIQTALVSEMNNTRQELLDDASQTAKNYASLENLVKAYKAEIVQSNEYEERIKHLESERSTLSSQKNQIISSLGTKEAQYEDLVKKLEAKNIEISQISGKEQSLTEKNENLSNELKKVQDQLEKLNNLNITTKSNYENKISSQNEIVKALVSENDTLKQRIQQLVEIKENEQKDHTTKLEAFQKNNEQLQKLNVEVVQLKAHELELEEQNRHLKNCLEKKETGVEESLSDVKTLKQQVIVLKSEKQDITAEKLELQDNLESLEEVTKNLQQKVQSQKRELEQKIKELEEIKNHKRNEPSKKGTQNFTKPSDSPKKNATTSNLFPNNSAAIHSPMKKCPKVDHISKSRINSSKETSKFNDEFDLSSSSNDDLELTNPSPIQIKPVRGKIKKGSNCMKPPISSRKKLLLVEDEDQSLKISKKRRRK
B4: Casein kinase 1 (CK1/Hrr25) (enzyme, UniProt P29295 1-494)
chain: MDLRVGRKFRIGRKIGSGSFGDIYHGTNLISGEEVAIKLESIRSRHPQLDYESRVYRYLSGGVGIPFIRWFGREGEYNAMVIDLLGPSLEDLFNYCHRRFSFKTVIMLALQMFCRIQYIHGRSFIHRDIKPDNFLMGVGRRGSTVHVIDFGLSKKYRDFNTHRHIPYRENKSLTGTARYASVNTHLGIEQSRRDDLESLGYVLIYFCKGSLPWQGLKATTKKQKYDRIMEKKLNVSVETLCSGLPLEFQEYMAYCKNLKFDEKPDYLFLARLFKDLSIKLEYHNDHLFDWTMLRYTKAMVEKQRDLLIEKGDLNANSNAASASNSTDNKSETFNKIKLLAMKKFPTHFHYYKNEDKHNPSPEEIKQQTILNNNAASSLPEELLNALDKGMENLRQQQPQQQVQSSQPQPQPQQLQQQPNGQRPNYYPEPLLQQQQRDSQEQQQQVPMATTRATQYPPQINSNNFNTNQASVPPQMRSNPQQPPQDKPAGQSIWL
B5: shugoshin (Sgo1) (protein, UniProt Q08490 1-590)
chain: MPKRKIAPNKESSRRTVSHDDLTPQIQEFQNLMDLESQKVENIRQSYSRQNSLLAKDNSILKIKVNSLEKKISQLVQENVTLRSKTSISEAIYRERLSNQLQVIENGIIQRFDEIFYMFENVRKNENLPSSSLRTMLKRTSSRSRSCSLSSPTYSKSYTRLSNHENNLSHESSFNKDDGPDLEPKAKKRKSSRRQSMFVSTSLEPEDETGENEPMMENSSVEVPAESHESAQVEETIDALNPEEENSDSVSNFTNSIIEYSIPEENPTEPEHSSSKLEIFNDSTNMLSTVPSNPLPLPLPGPSATLPTTTSDASTVYPSSSSSTNSHPKTKIKHSMKPPRIELKKKVIDEVMPVSNMSSNSEISFTRTRRTRGKAVDYTLPSLRAKMRRPSEKLVDATTVIDIHDLQVSKRNRETSHKRKSLSQDSIPDEPQLREVVVSKDYGTPKGKKTEDEIHEDTAHLMTTSNNNSNNKNEKKLTSNNSPKKSSPLLDITNKSENKKKSTRTKKLFKNAIVNNLSDENSTTRPSKSSKGTSNNNNNYNNFDNNNSNINNVNNKSVSFRLNEDDLAVFDLFGNGKAVKHQPKTYRTKK
B6: Smc1 (protein, UniProt P32908 1-1225)
chain: MGRLVGLELSNFKSYRGVTKVGFGESNFTSIIGPNGSGKSNMMDAISFVLGVRSNHLRSNILKDLIYRGVLNDENSDDYDNEGAASSNPQSAYVKAFYQKGNKLVELMRIISRNGDTSYKIDGKTVSYKDYSIFLENENILIKAKNFLVFQGDVEQIAAQSPVELSRMFEEVSGSIQYKKEYEELKEKIEKLSKSATESIKNRRRIHGELKTYKEGINKNEEYRKQLDKKNELQKFQALWQLYHLEQQKEELTDKLSALNSEISSLKGKINNEMKSLQRSKSSFVKESAVISKQKSKLDYIFKDKEKLVSDLRLIKVPQQAAGKRISHIEKRIESLQKDLQRQKTYVERFETQLKVVTRSKEAFEEEIKQSARNYDKFKLNENDLKTYNCLHEKYLTEGGSILEEKIAVLNNDKREIQEELERFNKRADISKRRITEELSITGEKLDTQLNDLRVSLNEKNALHTERLHELKKLQSDIESANNQEYDLNFKLRETLVKIDDLSANQRETMKERKLRENIAMLKRFFPGVKGLVHDLCHPKKEKYGLAVSTILGKNFDSVIVENLTVAQECIAFLKKQRAGTASFIPLDTIETELPTLSLPDSQDYILSINAIDYEPEYEKAMQYVCGDSIICNTLNIAKDLKWKKGIRGKLVTIEGALIHKAGLMTGGISGDANNRWDKEEYQSLMSLKDKLLIQIDELSNGQRSNSIRAREVENSVSLLNSDIANLRTQVTQQKRSLDENRLEIKYHNDLIEKEIQPKITELKKKLDDLENTKDNLVKEKEALQNNIFKEFTSKIGFTIKEYENHSGELMRQQSKELQQLQKQILTVENKLQFETDRLSTTQRRYEKAQKDLENAQVEMKSLEEQEYAIEMKIGSIESKLEEHKNHLDELQKKFVTKQSELNSSEDILEDMNSNLQVLKRERDGIKEDIEKFDLERVTALKNCKISNINIPISSETTIDDLPISSTDNEAITISNSIDINYKGLPKKYKENNTDSARKELEQKIHEVEEILNELQPNARALERYDEAEGRFEVINNETEQLKAEEKKILNQFLKIKKKRKELFEKTFDYVSDHLDAIYRELTKNPNSNVELAGGNASLTIEDEDEPFNAGIKYHATPPLKRFKDMEYLSGGEKTVAALALLFAINSYQPSPFFVLDEVDAALDITNVQRIAAYIRRHRNPDLQFIVISLKNTMFEKSDALVGVYRQQQENSSKIITLDLSNYAE
B7: Red1 (protein, UniProt P14291 1-827)
chain: MEGLKKKIFGVCLKNDLAQTRNETKGIHYGLMTLETSKQLQEFLHLLVIKREVIQNFELLFHIINVAVKITDSNLPSDDIWHFILKLRFSSEINIDEDSKVLNYLLETGIAMENPVSWKCLAVISSILSSVPQSKKIITNLIETEHAKKIGQLFDNIQDLQQGNFLVEILSNCFKKSASNSKKVEKIPQLWQSRSKNKFFFENEFYPFSSKNGSLQTCQFLCNNFMSTLSFTGILRQVSYSGSETLKNLRIFKKKDDENSYFIQCIYNKIYLWLDEKAPLEFERKKIRITKNLKNKIQIKLRQPFHECVRTTADKTALLFNKTKGFQLEFEDEKLGETFFHNVNNIPKISEVQNFLVLDYIEEEPENEGEEEEQIGRADEQKEDEEEESLDELSTPMVYPIKSSIPHNHNEKVQLVTPDRSVSIRSDEWDLKSNTEDEEGNVLADLKISSTKETKRQTDYVHIDSEDQSPVVSAQMRKMRRESTKTLEILRQEFKDKDVQNKEDQSEQIQNPFVNTSSLVVGKSCLVNPKEKPNIDQTVVGITELKSNSSIKKRDINILDTIFGQPPSKKQKQFHKKEKKKQQKKLTNFKPIIDVPSQDKRNLRSNAPTKPKSIKVSKLRTDKKVTGEKSSPETAAEKVDDQTVRSNDEQAMSRATKEKCFPDVNEGKEITKDDAKVSLESKKNNETFVDSSVVEKHTPPDKDCNNCNITDILESTTVIDLQSPHGLSAPGQNTFTNKLQEQIYSSINHFSNELVRKISIINQELNKKILKELSEKYQKLFSELQDNFQNDTNEMLKFMGEIKDMMNLPEDQLVHAIRTRKFDNNKR
B8: Csm1 (protein, UniProt P25651 1-190)
chain: MDPLTVYKNSVKQQIDSADLLVANLVNENFVLSEKLDTKATEIKQLQKQIDSLNAQVKELKTQTSQQAENSEVIKDLYEYLCNVRVHKSYEDDSGLWFDISQGTHSGGSSDDYSIMDYKLGFVKGQAQVTEVIYAPVLKQRSTEELYSLQSKLPEYLFETLSFPLSSLNQFYNKIAKSLNKKREKKDETE

The chains behind the UniProt entries cited, without tags or fusion partners.
UniProt P40460: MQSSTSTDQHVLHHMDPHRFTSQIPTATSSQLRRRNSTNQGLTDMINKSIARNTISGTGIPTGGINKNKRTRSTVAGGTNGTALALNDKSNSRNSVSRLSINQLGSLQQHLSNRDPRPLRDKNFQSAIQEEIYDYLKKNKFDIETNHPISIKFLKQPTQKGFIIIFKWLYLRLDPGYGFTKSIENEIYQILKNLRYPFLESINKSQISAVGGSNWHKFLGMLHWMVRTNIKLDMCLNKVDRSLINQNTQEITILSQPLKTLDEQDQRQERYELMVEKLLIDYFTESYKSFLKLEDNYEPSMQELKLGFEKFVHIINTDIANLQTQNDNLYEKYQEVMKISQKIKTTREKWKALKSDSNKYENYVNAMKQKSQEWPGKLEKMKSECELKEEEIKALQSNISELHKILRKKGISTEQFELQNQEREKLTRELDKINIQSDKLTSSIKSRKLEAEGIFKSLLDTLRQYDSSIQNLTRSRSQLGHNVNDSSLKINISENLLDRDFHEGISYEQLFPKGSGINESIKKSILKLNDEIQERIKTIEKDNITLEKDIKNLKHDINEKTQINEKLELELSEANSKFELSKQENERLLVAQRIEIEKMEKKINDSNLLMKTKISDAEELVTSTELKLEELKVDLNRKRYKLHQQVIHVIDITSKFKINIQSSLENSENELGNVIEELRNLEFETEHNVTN
UniProt P36012: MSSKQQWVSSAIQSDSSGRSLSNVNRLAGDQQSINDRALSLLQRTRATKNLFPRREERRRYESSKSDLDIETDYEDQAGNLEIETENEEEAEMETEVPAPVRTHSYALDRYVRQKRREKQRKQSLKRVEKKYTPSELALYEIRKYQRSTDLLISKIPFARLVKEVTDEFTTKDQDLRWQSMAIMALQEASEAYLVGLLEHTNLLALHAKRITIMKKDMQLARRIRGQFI
UniProt P47037: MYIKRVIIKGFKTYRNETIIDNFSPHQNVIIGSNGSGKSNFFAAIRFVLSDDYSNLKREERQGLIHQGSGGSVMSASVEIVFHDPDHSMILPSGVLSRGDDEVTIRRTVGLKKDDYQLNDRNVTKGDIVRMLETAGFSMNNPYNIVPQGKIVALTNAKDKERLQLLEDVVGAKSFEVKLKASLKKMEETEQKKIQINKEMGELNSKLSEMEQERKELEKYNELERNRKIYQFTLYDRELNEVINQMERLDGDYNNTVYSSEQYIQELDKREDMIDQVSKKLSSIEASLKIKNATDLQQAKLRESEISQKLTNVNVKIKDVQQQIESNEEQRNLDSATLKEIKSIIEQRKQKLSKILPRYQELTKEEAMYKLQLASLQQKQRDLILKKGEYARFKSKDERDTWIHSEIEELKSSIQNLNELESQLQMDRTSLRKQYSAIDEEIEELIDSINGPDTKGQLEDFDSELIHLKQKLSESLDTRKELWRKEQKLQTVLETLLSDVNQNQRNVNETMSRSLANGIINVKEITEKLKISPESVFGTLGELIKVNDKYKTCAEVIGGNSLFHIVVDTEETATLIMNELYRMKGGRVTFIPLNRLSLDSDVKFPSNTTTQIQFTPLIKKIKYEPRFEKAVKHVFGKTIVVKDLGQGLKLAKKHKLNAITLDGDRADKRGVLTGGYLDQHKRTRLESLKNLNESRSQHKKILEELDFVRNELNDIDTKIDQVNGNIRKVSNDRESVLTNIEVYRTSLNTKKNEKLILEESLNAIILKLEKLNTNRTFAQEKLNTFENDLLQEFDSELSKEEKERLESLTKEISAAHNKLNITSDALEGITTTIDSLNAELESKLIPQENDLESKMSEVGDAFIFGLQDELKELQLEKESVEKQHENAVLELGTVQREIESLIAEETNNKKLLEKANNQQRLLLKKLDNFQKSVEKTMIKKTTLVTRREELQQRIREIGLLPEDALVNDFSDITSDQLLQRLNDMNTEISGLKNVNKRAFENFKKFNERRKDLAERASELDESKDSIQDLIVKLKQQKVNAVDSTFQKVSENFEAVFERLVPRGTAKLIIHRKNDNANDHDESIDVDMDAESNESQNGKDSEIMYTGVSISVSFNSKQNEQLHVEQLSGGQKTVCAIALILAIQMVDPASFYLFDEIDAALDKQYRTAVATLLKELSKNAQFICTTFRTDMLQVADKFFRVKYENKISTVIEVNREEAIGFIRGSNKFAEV
UniProt P35201: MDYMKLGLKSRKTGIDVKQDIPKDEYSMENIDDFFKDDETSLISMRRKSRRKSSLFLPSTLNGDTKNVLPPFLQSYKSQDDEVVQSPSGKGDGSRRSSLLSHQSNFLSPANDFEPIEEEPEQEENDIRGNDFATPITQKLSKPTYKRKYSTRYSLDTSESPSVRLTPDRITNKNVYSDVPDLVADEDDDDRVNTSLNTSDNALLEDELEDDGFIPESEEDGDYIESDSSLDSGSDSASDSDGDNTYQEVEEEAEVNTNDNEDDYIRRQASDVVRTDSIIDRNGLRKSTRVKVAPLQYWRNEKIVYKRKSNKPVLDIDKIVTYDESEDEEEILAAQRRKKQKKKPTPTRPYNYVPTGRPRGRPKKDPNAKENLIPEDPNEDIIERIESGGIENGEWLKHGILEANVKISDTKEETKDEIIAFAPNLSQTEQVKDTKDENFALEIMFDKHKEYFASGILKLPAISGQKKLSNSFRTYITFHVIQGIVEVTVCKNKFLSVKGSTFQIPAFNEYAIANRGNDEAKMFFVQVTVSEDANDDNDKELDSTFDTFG

target: T1, Dsn1-6His-3FLAG (S. cerevisiae) (UniProt P40568); assay: affinity purification with mass spectrometry; anti-FLAG antibody on Protein G Dynabeads, Dsn1-6His-3FLAG from lysates of SK1 cells at mitotic metaphase, meiotic prophase, metaphase I and metaphase II (SynSAC, 250 uM ABA); BH0.15 buffer (150 mM KCl, 25 mM HEPES-KOH pH 8.0, 2 mM MgCl2, 0.1% NP-40), 3 hr at 4 C; DIA-MS of eluates, 95% phospho-enriched; no tag control
T1 sequence: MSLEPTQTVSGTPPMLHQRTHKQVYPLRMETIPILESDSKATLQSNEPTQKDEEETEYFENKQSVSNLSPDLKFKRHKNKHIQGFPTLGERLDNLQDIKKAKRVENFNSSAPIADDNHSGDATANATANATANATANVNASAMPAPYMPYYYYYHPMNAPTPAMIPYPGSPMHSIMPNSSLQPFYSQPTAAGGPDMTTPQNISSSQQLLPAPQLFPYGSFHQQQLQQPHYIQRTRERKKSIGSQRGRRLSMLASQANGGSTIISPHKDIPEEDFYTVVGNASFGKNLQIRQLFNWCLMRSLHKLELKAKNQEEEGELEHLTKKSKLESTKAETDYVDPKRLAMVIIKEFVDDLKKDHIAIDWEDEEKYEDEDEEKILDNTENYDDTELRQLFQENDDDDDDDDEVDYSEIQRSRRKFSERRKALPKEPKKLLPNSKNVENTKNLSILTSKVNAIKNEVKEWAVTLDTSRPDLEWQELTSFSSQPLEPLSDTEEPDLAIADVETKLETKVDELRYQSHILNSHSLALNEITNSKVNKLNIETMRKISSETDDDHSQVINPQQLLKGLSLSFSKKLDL

binding, binds:
B1, B2, B3, B4, B5, B6, B7, B8

target: T1, Dsn1-6His-3FLAG (S. cerevisiae); assay: as above; remark: another data set of the same source

binding, binds:
Ndc80 (from UniProt P40460 1-691), Cse4 (from UniProt P36012 1-229), Smc3 (from UniProt P47037 1-1230), Mif2 (from UniProt P35201 1-549)

— article PMC13065327
